According to PubChem BioAssay AID2685 (National Center for Advancing Translational Sciences (NCATS), 2010):
The other results are listed elsewhere or left out. Shown are side measurements of this screen, not its main read-out; they come without a call. Most of these compounds were active or inconclusive in the main read-out, so they are no random draw. The note in brackets gives the kind of curve behind each potency; many fits are weak.

Experiment: qHTS Assay for Lipid Storage Modulators in Drosophila S3 Cells;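 as to cell number change: cells counted by Cell Tracker Red CMTPX staining in the red channel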
Conditions: BODIPY lipid droplet fluorescence, 18-24 h; for cell number change: measured here: cell count max response, cells fed with added oleic acid
Procedure, shortened: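 Drosophila S3 cells got compounds at several concentrations plus oleic acid (400 uM solution). Laser-scanning cytometry with 488 nm excitation read lipid droplets at 500-530 nm and cells at 575-640 nm. Percent activity was relative to 20 uM Triacsin C.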

[1] = measured here: cell number channel AC50, cells fed with added oleic acid
[2] = measured here: lipid fluorescence (Fed channel) AC50, cells fed with added oleic acid

Structure (SMILES) | cell number change [%] | AC50 [1] | AC50 [2]
O=C(CSc1c[nH]c2ccccc12)N1CCOCC1 | 151 | 23.1 µM [rising, single point] | –
CCCCC(NC(=O)CCc1c(C)c2cc3c4c(oc3c(C)c2oc1=O)CCCC4)C(=O)O (stereo unspecified) | – | 3.66 µM [falling, single point] | –
Cc1[nH]nc(N)c1-c1ccc(Cl)cc1 | -29.6 | – | 23.1 µM [falling, single point]
O=C(O)CC/C(=C\c1ccc2c(c1)OCO2)c1nc2ccccc2s1 | -1.32 | – | 0.112 µM [falling, full curve, poor fit]
Cc1ccc(NC(=O)CN2C(=O)NC3(CCCC3)C2=O)c(Cl)c1 | 29.6 | – | 3.66 µM [rising, partial curve, poor fit]
CN1CCN(c2ccc(NC(=O)c3cc([N+](=O)[O-])ccc3N3CCOCC3)cc2)CC1 | – | – | 29.1 µM [rising, partial curve]
CCOc1cccc(C(=O)N2CCCN(C)CC2)c1 | -12.7 | – | 8.2 µM [rising, partial curve]
C/C=C/c1ccc(OCC(O)CNCCc2ccc(OC)cc2)c(OC)c1 (stereo unspecified) | 31.2 | 8.2 µM [rising, partial curve] | 0.326 µM [rising, partial curve, poor fit]
C=C1CCC[C@]2(C)C[C@H]3OC(=O)C(CN4CCOCC4)[C@H]3C[C@@H]12 (stereo partly specified) | – | – | 20.6 µM [falling, single point]
Cc1ccc(CNc2ccc(N3CCOCC3)cc2)s1 | 18 | – | –
COc1ccc(NS(=O)(=O)c2ccc(N3CCCC3)c(NC(=S)Nc3cccc(C)c3C)c2)cc1 | -8.31 | – | 18.4 µM [rising, single point]
O=C1NCCc2c1[nH]c1c(Cl)ccc(Cl)c21 | -23.7 | – | –
COc1ccc(C(=O)O)cc1S(=O)(=O)Nc1cccc(C)c1 | -95.7 | 1.46 µM [falling, partial curve] | 29.1 µM [falling, partial curve]
Cc1ccc(S(=O)(=O)N2CCN(C(=O)CCOc3cc(C)ccc3C)CC2)cc1 | -5.58 | – | 29.1 µM [falling, single point]
Cc1ccc(Cn2ccsc2=NC(=O)COC(=O)c2ccc(NC(=O)CC#N)cc2)cc1 | 9.72 | 4.11 µM [rising, single point] | –
COc1cccc(C(=O)N2CCN(C3CCC(c4ccccc4)CC3)CC2)c1 (stereo unspecified) | -1.7 | – | –
O=C(CCC1CCCC1)Nc1ccc(Br)cn1 | -22.6 | 0.00517 µM [falling, full curve, poor fit] | 2.06 µM [falling, full curve, poor fit]

Record cards (already shown). Values in the order: cell number change [%] | AC50 [1] | AC50 [2]
`CCOc1cccc(C(=O)N2CCCN(C)CC2)c1` as listed: -12.7 | – | 8.2 µM [rising, partial curve]
`O=C(O)CC/C(=C\c1ccc2c(c1)OCO2)c1nc2ccccc2s1` as listed: -1.32 | – | 0.112 µM [falling, full curve, poor fit]
